Measured values: article PMC4230938, “A High-Yield Co-Expression System for the Purification of an Intact Drs2p-Cdc50p Lipid Flippase Complex, Critically Dependent on and Stabilized by Phosphatidylinositol-4-Phosphate” (PLoS ONE, 2014)
No constants are given. Whether binding was seen depends on the method and setting. Binding seen in cells or lysates may run through a third protein. Some binding calls cover weakened binding; strength is not graded here. Where a sequence is shown, tags or fusion partners need not be part of it.

Key:
Experiment in all cases: pull-down; Bad-tagged Drs2p from DDM-solubilized yeast P3 membranes held on streptavidin-Sepharose, 2 h at 4°C, SSR buffer (50 mM Mops-Tris pH 7, 100 mM KCl, 20% glycerol, 5 mM MgCl2), washes with 0.5 mg/mL DDM and 0.025 mg/mL POPS; Histidine probe blot of the resin, Coomassie gel of the TEV eluate
[1] = target: T1, Drs2p^D560N variant (N-terminally Bad-tagged) (S. cerevisiae) (UniProt P39524)
T1 sequence (chain, biotin on the Bad tag): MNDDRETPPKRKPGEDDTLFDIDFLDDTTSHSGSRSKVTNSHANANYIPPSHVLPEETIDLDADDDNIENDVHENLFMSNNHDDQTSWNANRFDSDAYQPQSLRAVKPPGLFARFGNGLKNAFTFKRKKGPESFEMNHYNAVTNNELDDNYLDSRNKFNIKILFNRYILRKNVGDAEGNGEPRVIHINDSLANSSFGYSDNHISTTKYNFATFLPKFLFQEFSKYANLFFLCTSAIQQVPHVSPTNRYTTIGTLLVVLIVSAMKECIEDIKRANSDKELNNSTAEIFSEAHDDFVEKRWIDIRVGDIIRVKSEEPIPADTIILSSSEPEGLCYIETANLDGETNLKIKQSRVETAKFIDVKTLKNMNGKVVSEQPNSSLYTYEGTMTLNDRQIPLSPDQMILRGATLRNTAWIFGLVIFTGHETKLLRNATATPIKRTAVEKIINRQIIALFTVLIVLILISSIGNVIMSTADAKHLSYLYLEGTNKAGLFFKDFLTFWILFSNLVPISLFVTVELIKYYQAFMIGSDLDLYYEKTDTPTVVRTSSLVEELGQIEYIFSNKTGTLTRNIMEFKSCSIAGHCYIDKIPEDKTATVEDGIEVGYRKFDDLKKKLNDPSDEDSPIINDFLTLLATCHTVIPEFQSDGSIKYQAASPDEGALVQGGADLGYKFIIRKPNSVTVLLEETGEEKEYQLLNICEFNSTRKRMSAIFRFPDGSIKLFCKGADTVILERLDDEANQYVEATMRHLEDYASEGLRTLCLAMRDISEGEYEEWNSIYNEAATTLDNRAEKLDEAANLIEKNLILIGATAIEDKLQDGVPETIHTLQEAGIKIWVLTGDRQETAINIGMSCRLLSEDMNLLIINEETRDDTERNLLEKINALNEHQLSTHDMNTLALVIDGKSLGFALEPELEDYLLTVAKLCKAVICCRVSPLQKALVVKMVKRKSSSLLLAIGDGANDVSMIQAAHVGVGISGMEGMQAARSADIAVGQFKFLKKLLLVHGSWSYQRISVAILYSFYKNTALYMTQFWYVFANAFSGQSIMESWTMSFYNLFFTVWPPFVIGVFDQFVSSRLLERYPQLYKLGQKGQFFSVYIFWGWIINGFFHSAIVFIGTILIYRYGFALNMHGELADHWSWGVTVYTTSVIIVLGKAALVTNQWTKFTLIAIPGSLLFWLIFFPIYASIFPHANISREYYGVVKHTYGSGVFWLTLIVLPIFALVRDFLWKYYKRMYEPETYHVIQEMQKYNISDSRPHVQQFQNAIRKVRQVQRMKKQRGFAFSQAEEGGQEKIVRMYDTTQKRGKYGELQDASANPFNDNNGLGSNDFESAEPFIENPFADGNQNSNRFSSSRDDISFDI

[2] = target: T2, Drs2p^E342Q variant (N-terminally Bad-tagged) (S. cerevisiae) (UniProt P39524)
T2 sequence (chain, biotin on the Bad tag): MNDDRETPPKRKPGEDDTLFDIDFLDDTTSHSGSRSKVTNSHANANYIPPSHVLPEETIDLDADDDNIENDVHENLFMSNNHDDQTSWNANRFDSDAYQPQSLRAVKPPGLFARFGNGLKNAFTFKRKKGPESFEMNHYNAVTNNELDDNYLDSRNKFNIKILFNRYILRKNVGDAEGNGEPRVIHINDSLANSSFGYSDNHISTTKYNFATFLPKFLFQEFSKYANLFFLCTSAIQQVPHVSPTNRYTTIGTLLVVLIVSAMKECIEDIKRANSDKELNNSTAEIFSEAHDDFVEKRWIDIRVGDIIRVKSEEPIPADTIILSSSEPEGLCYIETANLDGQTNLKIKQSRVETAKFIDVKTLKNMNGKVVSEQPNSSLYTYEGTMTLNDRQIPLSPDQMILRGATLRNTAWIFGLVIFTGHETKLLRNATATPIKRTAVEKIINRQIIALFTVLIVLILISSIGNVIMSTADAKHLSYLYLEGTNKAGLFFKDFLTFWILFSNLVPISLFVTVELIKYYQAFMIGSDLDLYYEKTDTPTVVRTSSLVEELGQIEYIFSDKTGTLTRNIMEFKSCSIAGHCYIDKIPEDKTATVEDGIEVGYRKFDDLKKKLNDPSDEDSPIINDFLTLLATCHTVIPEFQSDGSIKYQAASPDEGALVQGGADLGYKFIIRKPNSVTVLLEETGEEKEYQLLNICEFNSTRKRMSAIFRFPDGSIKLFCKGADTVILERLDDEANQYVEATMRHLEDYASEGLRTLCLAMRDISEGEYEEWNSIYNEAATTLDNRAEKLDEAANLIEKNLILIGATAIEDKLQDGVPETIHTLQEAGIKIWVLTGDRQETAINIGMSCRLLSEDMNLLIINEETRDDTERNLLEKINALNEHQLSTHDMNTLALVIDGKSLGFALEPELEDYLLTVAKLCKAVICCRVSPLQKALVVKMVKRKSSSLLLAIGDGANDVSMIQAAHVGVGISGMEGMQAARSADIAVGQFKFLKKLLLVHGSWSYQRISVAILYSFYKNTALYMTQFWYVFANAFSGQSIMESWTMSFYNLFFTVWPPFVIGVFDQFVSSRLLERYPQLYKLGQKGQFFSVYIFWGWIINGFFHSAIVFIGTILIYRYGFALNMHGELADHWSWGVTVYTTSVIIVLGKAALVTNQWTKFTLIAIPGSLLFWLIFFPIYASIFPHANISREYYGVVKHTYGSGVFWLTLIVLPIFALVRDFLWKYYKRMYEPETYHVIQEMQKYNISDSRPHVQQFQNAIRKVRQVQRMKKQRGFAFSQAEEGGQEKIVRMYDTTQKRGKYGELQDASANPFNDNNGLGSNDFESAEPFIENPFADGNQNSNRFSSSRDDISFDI

[3] = target: T3, N-terminally Bad-tagged Drs2p (S. cerevisiae) (UniProt P39524)
T3 sequence (chain, biotin on the Bad tag): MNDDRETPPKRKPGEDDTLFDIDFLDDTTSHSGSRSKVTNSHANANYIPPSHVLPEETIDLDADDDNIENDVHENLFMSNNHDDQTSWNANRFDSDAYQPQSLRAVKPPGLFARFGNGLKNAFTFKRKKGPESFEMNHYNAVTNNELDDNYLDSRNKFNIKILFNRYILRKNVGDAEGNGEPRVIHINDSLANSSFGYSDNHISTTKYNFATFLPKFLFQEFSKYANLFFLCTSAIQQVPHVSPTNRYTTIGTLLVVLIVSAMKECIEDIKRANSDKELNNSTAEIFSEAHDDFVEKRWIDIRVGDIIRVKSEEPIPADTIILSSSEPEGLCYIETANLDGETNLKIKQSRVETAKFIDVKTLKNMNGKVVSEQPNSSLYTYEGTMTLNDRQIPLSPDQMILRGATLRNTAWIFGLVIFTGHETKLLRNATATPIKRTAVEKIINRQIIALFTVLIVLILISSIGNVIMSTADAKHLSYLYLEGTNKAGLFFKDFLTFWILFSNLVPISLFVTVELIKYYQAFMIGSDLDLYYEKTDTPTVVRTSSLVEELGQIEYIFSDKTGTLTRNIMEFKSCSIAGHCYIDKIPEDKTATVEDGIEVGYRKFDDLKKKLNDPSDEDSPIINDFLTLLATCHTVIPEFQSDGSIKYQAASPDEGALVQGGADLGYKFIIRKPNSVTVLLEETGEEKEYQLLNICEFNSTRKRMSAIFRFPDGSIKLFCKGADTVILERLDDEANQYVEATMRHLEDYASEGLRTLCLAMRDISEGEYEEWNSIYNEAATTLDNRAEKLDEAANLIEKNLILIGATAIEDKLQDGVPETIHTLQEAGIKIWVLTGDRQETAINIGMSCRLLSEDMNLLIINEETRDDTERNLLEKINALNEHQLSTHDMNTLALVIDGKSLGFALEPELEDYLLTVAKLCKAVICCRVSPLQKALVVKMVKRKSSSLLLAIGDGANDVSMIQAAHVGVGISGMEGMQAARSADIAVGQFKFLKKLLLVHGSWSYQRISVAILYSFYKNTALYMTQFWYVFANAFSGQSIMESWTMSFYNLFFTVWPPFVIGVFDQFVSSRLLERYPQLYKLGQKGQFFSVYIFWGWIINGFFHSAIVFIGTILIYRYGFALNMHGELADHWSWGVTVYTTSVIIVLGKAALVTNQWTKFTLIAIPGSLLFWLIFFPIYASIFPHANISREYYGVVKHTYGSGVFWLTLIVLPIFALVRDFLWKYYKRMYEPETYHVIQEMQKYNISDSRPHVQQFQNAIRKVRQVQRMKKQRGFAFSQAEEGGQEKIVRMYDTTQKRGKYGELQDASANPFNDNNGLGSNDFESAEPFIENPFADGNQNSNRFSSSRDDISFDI

Measured: binding

B1: N-terminally His10-tagged Cdc50p (with TEV cleavage site) (protein, UniProt P25656 1-391)
chain: MVSLFKRGKAPPLTKEGPTSKKPPNTAFRQQRLKAWQPILSPQSVLPLLIFVACIFTPIGIGLIVSATKVQDLTIDYSHCDTKASTTAFEDIPKKYIKYHFKSKVENKPQWRLTENENGEQSCELQFEIPNDIKKSIFIYYKITNFYQNHRRYVQSFDTKQILGEPIKKDDLDTSCSPIRSREDKIIYPCGLIANSMFNDTFSQVLSGIDDTEDYNLTNKHISWSIDRHRFKTTKYNASDIVPPPNWMKKYPDGYTDENLPDIHTWEEFQVWMRTAAFPKFYKLTLKNESASLPKGKYQMNIELNYPISLFGGTKSFVLTTNGAIGGRNMSLGVLYLIVAGLCALFGIIFLVKLIFQPRAMGDHTYLNFDDEENEDYEDVHAENTTLREIL
modifications: glycosylated (Cdc50p(g))
binds: all assays above
